Whole data set: some 33,000 sequences, median “E-score (-0.5 to 0.5)” near -0.0014, cut for the highest 2% near 0.25. The list shows a part of the results.
target: T1, Cad1 (UniProt P24813); assay: PBM E-score (8-mer binding enrichment) (E-score (-0.5 to 0.5)); higher = stronger / more preferred TF binding; conditions: protein concentration: 100 nM; construct: GST-full length
T1 sequence: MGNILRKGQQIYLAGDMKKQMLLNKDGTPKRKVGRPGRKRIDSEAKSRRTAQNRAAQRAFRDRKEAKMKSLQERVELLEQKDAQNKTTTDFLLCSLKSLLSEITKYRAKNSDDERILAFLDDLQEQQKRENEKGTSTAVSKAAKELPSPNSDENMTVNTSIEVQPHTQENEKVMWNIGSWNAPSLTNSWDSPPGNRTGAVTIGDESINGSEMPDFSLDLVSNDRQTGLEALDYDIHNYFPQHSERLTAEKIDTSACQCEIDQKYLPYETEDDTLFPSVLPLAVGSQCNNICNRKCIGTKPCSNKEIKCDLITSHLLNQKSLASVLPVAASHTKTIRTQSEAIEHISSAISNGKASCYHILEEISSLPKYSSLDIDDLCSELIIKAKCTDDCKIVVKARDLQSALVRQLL
Outline: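 GST-tagged yeast TFs (full-length or DNA-binding domain) were made by PURExpress in vitro transcription/translation and applied at about 100-200 nM to universal all-10-mer Agilent arrays. The arrays were made double-stranded by primer extension, on fresh or once-stripped slides. Bound protein was detected with fluorescent anti-GST, and scans were normalised with masliner. Each ungapped eight-base word, pooled with its reverse complement, received an E-score (modified Wilcoxon-Mann-Whitney statistic) from the Universal PBM Analysis Suite.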

| Sequence | PBM E-score |
| --- | --- |
| GCTGGTCC | -0.0276 |
| AATATGTC | 0.17 |
| CGCGAGGA | 0.0256 |
| ACTTGTAA | -0.0105 |
| AAATAAGC | 0.242 |
| CGGTACCG | 0.0814 |
| ATCGTAAC | 0.138 |
| ACGGTGGG | 0.0296 |
| GGCTTTTA | -0.163 |
| CATCGATA | 0.149 |
| GTGGGAAC | -0.15 |
| GGCGCCAC | -0.0976 |
| CAGCTTCC | -0.0607 |
| CGCCGACG | -0.0938 |
| ACACCCCC | -0.257 |
| ACGACTAA | -0.00848 |
| GCCAGCAA | -0.131 |
| GGCGGACC | -0.229 |
| CCCGTTGA | -0.131 |
| CTAAACAC | 0.00997 |
| TGGATACA | 0.00725 |
| AAAGTAAG | 0.00657 |

| Sequence | PBM E-score |
| --- | --- |
| CATCGGGC | -0.118 |
| GGCGGGAA | 0.0677 |
| CTCATCCC | -0.095 |
| ACGACTAT | -0.0492 |
| ACCGCCCT | -0.0409 |
| CAGATTGC | 0.028 |
| AGGGATCG | -0.207 |
| CACCTCAG | -0.109 |
| CGTGAGGC | -0.108 |
| CAAGGCCA | 0.073 |
| TGACCAAA | 0.0091 |
| AATAATCT | 0.193 |
| ATTAGGCG | 0.211 |
| ATGAACGA | 0.111 |
| GGAACCTA | -0.0312 |
| CGCCTACG | -0.188 |
| ACTGAATG | 0.00334 |
| CTTGCCAA | -0.109 |
| TTCAGGAA | -0.019 |
| AAAGACCA | -0.153 |
| CACCTCAA | -0.0194 |
| ATGACATC | 0.232 |

Single values from the results shown.
Value for ACGACTAT under PBM E-score: -0.0492
Value for CACCTCAG under PBM E-score: -0.109
Value for TTCAGGAA under PBM E-score: -0.019
Value for ATGACATC under PBM E-score: 0.232
Value for CAGATTGC under PBM E-score: 0.028

Continued:

| Sequence | PBM E-score |
| --- | --- |
| CCCTAGGG | -0.212 |
| GAACCTCC | -0.0846 |
| GGTGACGA | 0.0258 |
| CAGCTCCC | -0.329 |
| AATATCTA | 0.129 |
| ATTAAACA | 0.0666 |
| ACTAGGCC | -0.304 |
| TGACAACA | 0.162 |
| CACGCGAG | 0.239 |
| GAGCAGAC | -0.243 |
| AGTAAAGG | 0.0145 |
| AGAGGTGG | -0.0604 |
| ACTCGCAT | 0.101 |
| CTTGGGGA | 0.0866 |
| CACATGCC | -0.0297 |
| CCGTAAGG | -0.294 |
| GTTAGATA | 0.0557 |
| CAGTTCAG | 0.0134 |
| AAAATTAC | 0.072 |
| ATGGCCAC | -0.21 |
| TAAGAGGA | 0.138 |
| ATGAAAAT | 0.0649 |

| Sequence | PBM E-score |
| --- | --- |
| GTTGAAAA | -0.0062 |
| AAGGCGAG | -0.149 |
| CCGTCTAA | -0.00091 |
| CTGTAAGA | 0.0798 |
| AACAAACC | 0.243 |
| AACCGACT | -0.0876 |
| CGACTGCA | 0.0813 |
| ACAGATGC | -0.123 |
| AGTGACTA | 0.063 |
| TCAGTAAA | 0.0937 |
| CCTCATAC | -0.0901 |
| AGGCCATG | 0.0395 |
| GCAAAAAC | -0.039 |
| CTCAAGAC | -0.0669 |
| ACCTATAG | -0.0679 |
| CATCTCCC | -0.271 |
| GTTAACTA | 0.274 |
| CGCCGCGA | 0.205 |
| CGTCCCAA | 0.0319 |
| CTCACCCC | -0.273 |
